Reference: PubChem BioAssay AID1671190 (National Center for Advancing Translational Sciences (NCATS), 2021)
Hit rate of the full screen: of about 580,000 compounds, about 6,100 (1.1%) were called active. This list was built around the results that the source calls inconclusive (neither active nor inactive); the mix of calls is not that of the screen. Calls follow the shape of the dose curve; as a rule, active = well fitted inhibition curve with a large enough effect; inconclusive = small, poorly fitted or top-dose-only effect, or another doubt; inactive = no such curve, though single readings can be large or run the other way. Potencies beside an inconclusive call are fits to weak or partial responses and may not hold up.
% is scaled to controls: 0 for no effect and ±100 for the full control effect; potency is read from the fitted curve at half-maximal effect.

Amino acid sequences for entries named in this document (tags omitted). A change or cut given only in a name is not applied to a line headed by its entry.
UniProt P18054: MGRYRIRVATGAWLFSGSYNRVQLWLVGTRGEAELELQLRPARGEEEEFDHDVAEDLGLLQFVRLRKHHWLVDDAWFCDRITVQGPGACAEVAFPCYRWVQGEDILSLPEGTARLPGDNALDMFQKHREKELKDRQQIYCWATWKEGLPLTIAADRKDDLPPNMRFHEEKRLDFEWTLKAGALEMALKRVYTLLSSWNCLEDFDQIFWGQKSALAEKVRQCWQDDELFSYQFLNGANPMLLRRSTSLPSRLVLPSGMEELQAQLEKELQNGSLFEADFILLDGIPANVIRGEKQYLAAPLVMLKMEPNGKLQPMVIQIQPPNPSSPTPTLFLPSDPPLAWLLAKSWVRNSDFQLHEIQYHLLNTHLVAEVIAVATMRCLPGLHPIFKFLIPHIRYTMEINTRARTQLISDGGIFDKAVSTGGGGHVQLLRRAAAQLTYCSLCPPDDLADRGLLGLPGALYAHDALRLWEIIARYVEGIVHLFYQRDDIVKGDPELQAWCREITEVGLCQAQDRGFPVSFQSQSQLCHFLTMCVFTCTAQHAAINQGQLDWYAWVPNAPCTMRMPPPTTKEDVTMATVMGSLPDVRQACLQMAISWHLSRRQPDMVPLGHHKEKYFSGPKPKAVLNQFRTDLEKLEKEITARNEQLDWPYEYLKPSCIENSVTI

Each compound was assayed against Polyunsaturated fatty acid lipoxygenase ALOX12 (Homo sapiens) (UniProt P18054) (assay: Primary qHTS assay for inhibitors of human arachidonate 12S-lipoxygenase (ALOX12): Round 2). Details: purified 12hLO, xylenol orange hydroperoxide absorbance; activity change, negative = inhibition: at 108 µM (top of the series) unless noted.
How it was run: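 Hydroperoxide product was detected by ferrous iron/xylenol orange as the 573 to 405 nm absorbance ratio. Arachidonic acid at 40 uM (final) was turned over for 30 min at room temperature by 150 nM human 12hLO, pH 7.0 Hepes buffer, after 15 min compound preincubation.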
In the case of `Cc1cccc(C2=NN(c3ccc(Br)cc3)[C@@H](C(=O)N3CCOC3=O)[C@@H]2C)c1`, the Potency is reported as inconclusive: 35.5 µM [inhibitor, partial curve, poor fit].
For `Cc1ccc(-n2cccc2/C=C2/C(=N)N3C(=NC2=O)SN=C3S(C)(=O)=O)cc1Cl`, the Potency was active: 14.1 µM.
In the case of `O=C(c1csc(Nc2cccc3ccccc23)n1)N1CCc2ccccc2C1`, the “activity change, negative = inhibition” value is reported as inactive: 26.3%.
In the case of `CCOc1cccc(OCCCCn2ccnc2)c1`, the Potency is reported as inconclusive: 2.24 µM [inhibitor, full curve, poor fit].
For `COc1cccc(N/N=C/c2cccc(Br)c2O)c1`, the Potency was inconclusive: 100 µM [inhibitor, single point].
For `O=C(NCCCN1CCC(Cc2ccccc2)CC1)c1ccc2nc(N3CCOCC3)sc2c1`, the Potency was inconclusive: 50.1 µM [inhibitor, partial curve, poor fit].
`COc1ccc(C(=O)/C=C/Sc2nc3ccccc3o2)cc1` was tested, and the Potency was inconclusive: 50.1 µM [inhibitor, partial curve, poor fit].
For `Cc1oc(-c2ccccc2)nc1C(=O)N1CCN(c2ccc(F)cc2)CC1`, the “activity change, negative = inhibition” value was inactive: 7.9%.
In the case of `COCCCNC(=O)c1c(NC(=O)Cc2coc3cc(C)ccc23)sc2c1CCCC2`, the Potency is reported as inconclusive: 100 µM [inhibitor, single point].
In the case of `CN(Cc1ccccc1)CC1(O)CCCN(CCCc2ccccc2)C1=O` (stereo unspecified), the “activity change, negative = inhibition” value is reported as inactive: 88.1%.
In the case of `COc1ccccc1/C=C1\SC(=S)N(CCC(=O)N2CCN(C)CC2)C1=O`, the Potency is reported as inconclusive: 50.1 µM [inhibitor, partial curve, poor fit].
With `CCCCNCc1ccccc1C(F)(F)F` the Potency was inconclusive: 2.51 µM [inhibitor, full curve, poor fit].
For `CC1(C)Cc2c(cnn2-c2ccccc2)-c2c1c1ccccc1n2CC(O)CCl` (stereo unspecified), the “activity change, negative = inhibition” value was inactive: 0%.
`Cc1ccc(NC(=O)CN2C(=O)NC3(CCCCCCC3)C2=O)cc1C` was tested, and the Potency was inconclusive: 141 µM [inhibitor, single point].
For `COc1ccc(C(=O)/C=C/c2cn(CC(O)CN3CCCCCC3)c3ccccc23)cc1OC` (stereo unspecified), the Potency was inconclusive: 56.2 µM [inhibitor, partial curve, poor fit].
With `COc1ccc(CNc2nc3c(c(=O)[nH]c(=O)n3C)n2Cc2ccccc2C)cc1` the Potency was inconclusive: 79.4 µM [inhibitor, single point].
With `Cc1ccc(C)c(N2CCN(CCN3CCCCC3)CC2)c1` the Potency was inconclusive: 3.16 µM [inhibitor, full curve, poor fit].
`Cc1ccc(C(=O)NCC(=O)N2CCN(c3ccccc3O)CC2)s1` was tested, and the Potency was inconclusive: 112 µM [inhibitor, single point].
For `Cc1ccc2oc(C(=O)N(C)Cc3ccc(C)o3)c(C)c2c1`, the Potency was inconclusive: 44.7 µM [inhibitor, partial curve, poor fit].
`CN1CC(=O)N(C2CCNC2)Cc2c1ncnc2N1CCC(N)CC1` (stereo unspecified) was tested, and the Potency was inconclusive: 7.94 µM [inhibitor, partial curve].
In the case of `CCCC(CNC(=O)COC(=O)C1=NNC(=O)CC1)c1ccc(Cl)cc1Cl` (stereo unspecified), the Potency is reported as inconclusive: 100 µM [inhibitor, partial curve, poor fit].
In the case of `CCNC(=S)N=Nc1c(O)n(Cc2ccc(Cl)cc2)c2ccccc12`, the Potency is reported as inconclusive: 22.4 µM [inhibitor, partial curve, poor fit].
In the case of `Cc1oc(CC(C)C)c(CN2CCCC2)c1C(=O)O`, the Potency is reported as inconclusive: 11.2 µM [inhibitor, partial curve, poor fit].
`COC(=O)c1ccc(OC(=O)CCS(=O)(=O)c2ccc(C)cc2)cc1` was tested, and the “activity change, negative = inhibition” value was inactive: -30%.
`Cc1ccc(S(=O)(=O)Nc2ccc(Cl)cn2)cc1` was tested, and the Potency was inconclusive: 31.6 µM [inhibitor, partial curve, poor fit].
In the case of `C=CC(C)(C)c1[nH]c2ccccc2c1C1=C(O)C(=O)C(c2c[nH]c3c(CC=C(C)C)cccc23)=C(O)C1=O`, the Potency is reported as inconclusive: 1.12 µM [inhibitor, full curve, poor fit].
For `COc1ccc(-c2nc3ccccc3o2)cc1NC(=O)COc1cc(C)cc(C)c1`, the Potency was inconclusive: 63.1 µM [inhibitor, partial curve, poor fit].
For `CNC(=O)[C@@H](Cc1ccccc1)N1CCC[C@H]1C(=O)N1CCOCC1`, the Potency was inconclusive: 12.6 µM [inhibitor, full curve, poor fit].
With `C=CCn1c(SCc2cc(=O)n3ccsc3n2)nnc1C1CCCCC1` the Potency was inconclusive: 89.1 µM [inhibitor, single point].
In the case of `CCn1c(CO)nnc1C1CC(NC(=O)c2sccc2N)C1` (stereo unspecified), the Potency is reported as inconclusive: 12.6 µM [inhibitor, full curve].
For `COc1cc(/C=N/N=C(N)N)ccc1OCc1ccc(Cl)cc1`, the Potency was inconclusive: 50.1 µM [inhibitor, partial curve, poor fit].
In the case of `COc1ccc(OC)c(Nc2c3ccccc3nc3ccccc23)c1`, the Potency is reported as inconclusive: 100 µM [inhibitor, partial curve, poor fit].
In the case of `Cn1nc(C2CC2)c2c(C(F)(F)F)cc(-c3ccc(Cl)c(Cl)c3)nc21`, the Potency is reported as inconclusive: 39.8 µM [inhibitor, partial curve, poor fit].
In the case of `Cc1ccc(C2CN(CCC(N)=O)C(=O)CO2)cc1` (stereo unspecified), the Potency is reported as inconclusive: 100 µM [inhibitor, single point].
For `O=C(Cc1cccc(F)c1)N1CCC(Oc2ccccc2)C1` (stereo unspecified), the Potency was inconclusive: 50.1 µM [inhibitor, partial curve].
For `COc1ccccc1CNc1nc(-c2ccc(CNC(C)=O)cc2)cs1`, the Potency was inconclusive: 11.2 µM [inhibitor, partial curve, poor fit].
For `Cc1cc(Cl)ccc1Oc1ncnc2oc(-c3ccccc3)cc12`, the Potency was inconclusive: 100 µM [inhibitor, partial curve, poor fit].
For `Cc1nc2c(ccc3c2ccc2nc(C)sc23)s1`, the Potency was inconclusive: 35.5 µM [inhibitor, single point].
For `COc1ccc(NS(=O)(=O)c2cnc(N)nc2)cc1Cl`, the Potency was inconclusive: 50.1 µM [inhibitor, partial curve, poor fit].
In the case of `COc1ccc(OC)c(S(=O)(=O)Nc2ccccc2SC)c1`, the “activity change, negative = inhibition” value is reported as inactive: -22.9%.
In the case of `CCOC(=O)Cc1csc(NC(=S)NC(=O)c2cc(OC)c(OC)c(OC)c2)n1`, the Potency is reported as inconclusive: 4.47 µM [inhibitor, full curve, poor fit].
With `CN(C)c1ccc(-c2cc(-n3ccnc3)ncn2)cc1` the Potency was inconclusive: 39.8 µM [inhibitor, partial curve].
For `COc1ccc(C(=S)N2CCCC2)cc1OC`, the “activity change, negative = inhibition” value was inactive: 0%.
`CCOc1cccc2c1OC1(CCCCC1)N1N=C(c3cccnc3)CC21` (stereo unspecified) was tested, and the Potency was inconclusive: 39.8 µM [inhibitor, single point].
For `COC(=O)c1ccc(C)c(NC(=O)CN2C(=O)c3ccccc3S2(=O)=O)c1`, the Potency was inconclusive: 70.8 µM [inhibitor, single point].
`CC(=O)c1ccc(Oc2ncnc3c2oc2ccccc23)cc1` was tested, and the Potency was inconclusive: 158 µM [inhibitor, single point].
In the case of `CCOC(=O)C1=C(C)N=C2SC(C(=O)OC)=CC(=O)N2C1c1ccc(F)cc1` (stereo unspecified), the Potency is reported as inconclusive: 44.7 µM [inhibitor, partial curve, poor fit].
With `COc1ccc(C(=O)N2c3ccc(F)cc3CCC2C)cc1OC` (stereo unspecified) the Potency was inconclusive: 56.2 µM [inhibitor, partial curve, poor fit].
In the case of `O=C1OCCN1C(=O)[C@H]1[C@H](c2ccc(Cl)cc2)C(c2ccc(F)cc2)=NN1c1ccccc1`, the Potency is reported as inconclusive: 89.1 µM [inhibitor, single point].
With `CC(C)C1NCCc2c1sc1ccccc21` (stereo unspecified) the “activity change, negative = inhibition” value was inactive: 3.78%.
With `OCC1CN(Cc2ccccc2)CC12CCN(C1CCC1)CC2` (stereo unspecified) the “activity change, negative = inhibition” value was inactive: 17.8%.
`COC(=O)c1ccccc1N(Cc1ccccc1)S(C)(=O)=O` was tested, and the “activity change, negative = inhibition” value was inactive: 0%.
In the case of `CC(CC(=O)Nc1cccc(S(=O)(=O)N2CCCCC2)c1)c1ccccc1` (stereo unspecified), the Potency is reported as inconclusive: 126 µM [inhibitor, partial curve, poor fit].
With `Cc1ccc2[nH]c(=O)c(CN(CC3CCCO3)C(=S)Nc3ccccc3)cc2c1` (stereo unspecified) the Potency was inconclusive: 56.2 µM [inhibitor, partial curve, poor fit].
For `CCOC(=O)/C(=N\Nc1ccccc1Cl)N1CC(C)OC(C)C1` (stereo unspecified), the Potency was inconclusive: 56.2 µM [inhibitor, partial curve, poor fit].
In the case of `N#Cc1c(N)n[nH]c1CCCNC(=O)NC1CCCc2ccccc21` (stereo unspecified), the “activity change, negative = inhibition” value is reported as inactive: -13.3%.
In the case of `O=C1CSc2ccc(C(=O)NC3CC3)cc2N1`, the Potency is reported as inconclusive: 35.5 µM [inhibitor, partial curve, poor fit].
In the case of `CNC(=O)COc1ccccc1C(=O)Nc1ccc2c(c1)oc1ccccc12`, the “activity change, negative = inhibition” value is reported as inactive: 0%.
With `OC(c1ccc(Cl)c(F)c1)c1ncc(-c2cccc3ccccc23)[nH]1` (stereo unspecified) the “activity change, negative = inhibition” value was inactive: -24.9%.
In the case of `Cn1cc(/C=C/C(=O)N2CCCC(C(=O)c3ccc(C(C)(C)C)cc3)C2)cn1` (stereo unspecified), the “activity change, negative = inhibition” value is reported as inactive: 5.77%.
With `Cc1ccc(NC(=O)c2cc(N(C)C)ccc2[P+](=O)O)cc1` the Potency was inconclusive: 11.2 µM [inhibitor, full curve, poor fit].
With `C=C1C(=O)O[C@@H]2C[C@@H](C)[C@@H]3C=CC(=O)[C@@]3(C)[C@@H](OC(C)=O)[C@H]12` the “activity change, negative = inhibition” value was inactive: 2.71%.
`N=C(N)N1CCN(c2ccccc2)CC1` was tested, and the Potency was inconclusive: 44.7 µM [inhibitor, partial curve, poor fit].
In the case of `COc1c2c(cc3oc(=O)ccc13)OC(C)(C)C=C2`, the Potency is reported as inconclusive: 100 µM [inhibitor, single point].
With `Cc1cccc(OCC(=O)O/N=C(\N)c2ccncc2)c1` the “activity change, negative = inhibition” value was inactive: 13.4%.
In the case of `Cc1cc(-c2ccccc2)nc(SCC(=O)c2ccc3c(c2)OCCCO3)n1`, the “activity change, negative = inhibition” value is reported as inactive: 20.6%.
